Results are given in words; binding and its absence hold for the method and conditions named. Binding seen in cells or lysates may run through a third protein. Some binding calls cover weakened binding; strength is not graded here. For some assays here: Sequences can lack the tags named with a protein.
Assays:
GFP-CtIP-K578R (human) = biological target: T1, GFP-CtIP-K578R (human) (UniProt Q99708); experiment: co-IP; GFP-Trap agarose IP of GFP-CtIP constructs from cell lysate (RIPA buffer with NEM, diluted to 150 mM NaCl; washes with 500 mM NaCl), immunoblot; some experiments after siRNA depletion of endogenous CtIP, S phase synchronisation or HU treatment for 4 h
T1 sequence: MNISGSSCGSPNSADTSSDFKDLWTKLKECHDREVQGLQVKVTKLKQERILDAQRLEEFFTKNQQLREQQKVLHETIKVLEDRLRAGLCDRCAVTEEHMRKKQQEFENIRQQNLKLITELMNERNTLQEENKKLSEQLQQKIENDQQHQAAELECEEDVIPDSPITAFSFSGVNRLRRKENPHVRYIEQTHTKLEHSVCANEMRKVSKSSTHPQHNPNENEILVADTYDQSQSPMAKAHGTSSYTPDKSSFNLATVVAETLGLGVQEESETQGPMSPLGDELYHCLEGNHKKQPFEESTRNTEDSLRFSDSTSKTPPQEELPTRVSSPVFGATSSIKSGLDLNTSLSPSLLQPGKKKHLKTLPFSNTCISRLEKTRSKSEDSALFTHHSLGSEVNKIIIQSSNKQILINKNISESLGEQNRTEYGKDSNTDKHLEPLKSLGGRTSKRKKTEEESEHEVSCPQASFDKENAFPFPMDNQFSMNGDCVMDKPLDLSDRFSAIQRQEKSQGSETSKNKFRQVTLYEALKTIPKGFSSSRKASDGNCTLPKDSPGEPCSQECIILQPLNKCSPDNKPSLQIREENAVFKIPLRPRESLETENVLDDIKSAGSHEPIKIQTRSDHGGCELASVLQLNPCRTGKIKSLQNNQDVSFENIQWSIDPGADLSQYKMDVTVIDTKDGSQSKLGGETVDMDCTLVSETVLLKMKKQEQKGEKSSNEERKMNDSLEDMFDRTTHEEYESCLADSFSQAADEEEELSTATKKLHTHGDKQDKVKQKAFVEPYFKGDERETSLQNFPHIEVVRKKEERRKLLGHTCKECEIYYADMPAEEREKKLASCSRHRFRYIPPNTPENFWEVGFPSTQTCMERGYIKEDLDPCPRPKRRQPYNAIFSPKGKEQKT

Chains of the proteins cited; added tags and fusions are not shown. Lines headed by an entry give the natural chain unless they say otherwise; changes in a name come on top.
UniProt P12004: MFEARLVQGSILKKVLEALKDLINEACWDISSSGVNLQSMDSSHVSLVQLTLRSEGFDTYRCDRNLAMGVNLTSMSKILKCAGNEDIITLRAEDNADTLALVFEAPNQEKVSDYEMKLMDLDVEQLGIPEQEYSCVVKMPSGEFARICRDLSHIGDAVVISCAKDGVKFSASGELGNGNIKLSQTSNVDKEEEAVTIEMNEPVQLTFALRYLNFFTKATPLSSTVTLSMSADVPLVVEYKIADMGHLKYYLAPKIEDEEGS
UniProt P49959: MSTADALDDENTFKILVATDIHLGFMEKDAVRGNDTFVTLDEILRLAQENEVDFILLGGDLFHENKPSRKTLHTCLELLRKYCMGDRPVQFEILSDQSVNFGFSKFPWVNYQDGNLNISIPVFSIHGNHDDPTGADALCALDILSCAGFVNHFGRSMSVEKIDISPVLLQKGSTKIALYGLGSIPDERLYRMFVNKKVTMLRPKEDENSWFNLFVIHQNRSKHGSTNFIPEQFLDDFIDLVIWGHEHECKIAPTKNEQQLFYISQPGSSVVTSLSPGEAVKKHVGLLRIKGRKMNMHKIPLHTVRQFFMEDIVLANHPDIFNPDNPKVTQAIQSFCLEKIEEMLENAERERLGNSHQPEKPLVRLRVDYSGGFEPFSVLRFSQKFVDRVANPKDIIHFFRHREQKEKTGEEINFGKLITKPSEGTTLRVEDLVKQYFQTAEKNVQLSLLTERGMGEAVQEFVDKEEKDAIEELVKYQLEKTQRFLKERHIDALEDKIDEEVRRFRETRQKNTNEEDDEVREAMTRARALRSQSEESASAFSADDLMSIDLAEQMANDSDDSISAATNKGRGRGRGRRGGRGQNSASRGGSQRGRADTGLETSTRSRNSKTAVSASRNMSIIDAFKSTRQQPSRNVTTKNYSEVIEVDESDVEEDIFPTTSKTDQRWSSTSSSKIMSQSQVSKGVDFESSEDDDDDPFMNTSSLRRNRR

[1] = biological target: GFP-CtIP-WT (siRNA-resistant N-terminally GFP-tagged CtIP, wildtype) (human) (UniProt Q99708); experiment: as above
[2] = biological target: T2, GFP-CtIP-Δ515–518 (human) (UniProt Q99708); experiment: co-IP; GFP IP from U-2 OS depleted of endogenous CtIP by siRNA and co-transfected with RFP-PCNA and GFP-CtIP-WT or -Δ515–518; lysis in NETMN buffer (500 mM NaCl, 0.5% IGEPAL CA-630) instead of RIPA, adjusted to a composition similar to Dilution Buffer before mixing with the beads
T2 sequence: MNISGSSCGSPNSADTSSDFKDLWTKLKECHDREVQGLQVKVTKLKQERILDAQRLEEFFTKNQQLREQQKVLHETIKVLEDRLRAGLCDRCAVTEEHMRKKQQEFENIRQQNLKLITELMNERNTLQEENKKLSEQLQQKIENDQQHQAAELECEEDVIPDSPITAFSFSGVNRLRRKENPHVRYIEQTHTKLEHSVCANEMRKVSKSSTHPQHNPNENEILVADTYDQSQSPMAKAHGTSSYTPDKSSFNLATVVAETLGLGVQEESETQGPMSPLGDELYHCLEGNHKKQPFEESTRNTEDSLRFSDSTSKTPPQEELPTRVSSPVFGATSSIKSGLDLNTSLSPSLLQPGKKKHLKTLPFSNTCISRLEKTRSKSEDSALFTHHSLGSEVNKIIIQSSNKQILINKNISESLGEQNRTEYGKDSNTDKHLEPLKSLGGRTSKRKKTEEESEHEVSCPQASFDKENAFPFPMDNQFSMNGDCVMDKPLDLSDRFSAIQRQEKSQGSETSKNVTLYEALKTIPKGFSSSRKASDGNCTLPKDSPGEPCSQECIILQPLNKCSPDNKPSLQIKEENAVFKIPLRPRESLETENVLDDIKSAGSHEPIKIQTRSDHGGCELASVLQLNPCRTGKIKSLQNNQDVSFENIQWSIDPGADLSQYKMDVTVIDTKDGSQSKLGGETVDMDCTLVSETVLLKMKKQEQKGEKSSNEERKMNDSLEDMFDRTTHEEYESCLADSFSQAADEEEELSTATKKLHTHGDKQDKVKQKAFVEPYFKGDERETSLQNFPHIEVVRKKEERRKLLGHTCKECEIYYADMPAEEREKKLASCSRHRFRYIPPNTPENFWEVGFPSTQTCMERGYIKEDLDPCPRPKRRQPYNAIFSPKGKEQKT

[3] = biological target: GFP-CtIP-WT (siRNA-resistant N-terminally GFP-tagged CtIP, wildtype) (human) (UniProt Q99708); experiment: as above

Substance | binding (GFP-CtIP-K578R (human)) | binding [1] | binding [2] | binding [3]
PCNA, endogenous (from UniProt P12004 1-261) | binds | binds | – | –
RFP-PCNA (monomeric red fluorescent protein-tagged proliferating cell nuclear antigen) (from UniProt P12004 1-261) | binds | binds | binds | binds
MRN (MRE11–RAD50–NBS1) complex (from UniProt P49959 1-708; Q92878 1-1312; O60934 1-754) | binds | binds | – | –

From publication PMC7826263
